The assay in a line: qHTS Assay for Lipid Storage Modulators in Drosophila S3 Cells.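 On cell number change: cells counted by Cell Tracker Red CMTPX staining in the red channel.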 The settings on record: BODIPY lipid droplet fluorescence, 18-24 h; for cell number change: measured here: cell count max response, cells fed with added oleic acid. The method, boiled down: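 Drosophila S3 cells loaded with oleic acid (400 uM, as added) and compounds at several concentrations; lipid droplets imaged by 488-nm laser-scanning cytometry, 500–530 nm intensity and object ratio to cell channel. Percent activity normalized to 20 uM Triacsin C.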
A general note: In qHTS, concentration-response curves come from the screen itself.

Where [1] appears, read: measured here: cell number channel AC50, cells fed with added oleic acid.
Where [2] appears, read: measured here: lipid fluorescence (Fed channel) AC50, cells fed with added oleic acid.

Each structure is given as a SMILES string. The list shows a part of the results. Further columns of the screen follow, without active or inactive calls. Most of these compounds were active or inconclusive in the main read-out, so they are no random draw. Words in brackets tell the shape of the fitted curve; partial curves, single points and poor fits give uncertain potencies.

In the case of `CC1CCCCN1CC(=O)Nc1ccccc1Sc1ccccc1` (centres undefined), the cell number change was -32.1%. Besides, the AC50 (in general, the concentration giving half of the maximal activity seen) under setting [1] was 29.1 µM [falling, single point]. Besides, under setting [2], the half-maximal activity concentration (AC50) was 29.1 µM [falling, single point].
As to `Cc1ccc(N=C2SC(C(=O)Nc3ccc(OC(F)(F)F)cc3)C(N)=C2C(=O)Nc2c(C)cc(C)cc2C)cc1` (centres undefined), the cell number change is -77.3%. Further, the AC50 under setting [1] is 7.31 µM [falling, partial curve]. For the same molecule, the AC50 under setting [2] is 5.8 µM [falling, partial curve].
On to `Cc1oc2c(c(C)cc3oc(=O)c(CC(=O)N[C@@H](CC(C)C)C(=O)O)c(C)c32)c1C`, for which the cell number change is -2.46%. Under setting [2], the AC50 was 2.06 µM [rising, full curve, poor fit].
Take `CC[C@@H](C)[C@H](NC(=O)CNC(=O)Cc1c(C)c2c(cc(C)c3c(C)coc32)oc1=O)C(=O)O`: under setting [2], the half-maximal activity concentration (AC50) was 6.51 µM [rising, single point].
Regarding `O=C(COC(=O)C1CC2CCCC(C1)C2=O)c1cccc(Br)c1` (centres undefined), the cell number change was -8.53%.
With `CCOc1ccc(NC(=O)Nc2cc(C(C)C)ccc2C)cc1`, the cell number change is -10.9%. The AC50 under setting [2] is 0.00461 µM [falling, full curve, poor fit].
For the molecule `CN1CCN(c2ccc(NC(=O)c3ccc(Cl)cc3)cn2)CC1`, under setting [2], the AC50 is 0.00461 µM [falling, full curve, poor fit].
`O=C(c1nc2ccccn2c1CN1CCCC(O)C1)N1CCN(C2CCCCC2)CC1` (centres undefined): the cell number change is 33.2%. Moreover, the AC50 under setting [1] is 16.4 µM [rising, partial curve, poor fit].
Turning to `COc1ccccc1NC(=S)N(Cc1ccco1)Cc1cc2cc(C)c(C)cc2[nH]c1=O`, the cell number change is -15.6%. In addition, the concentration at half-maximal activity (AC50) under setting [2] was 1.84 µM [rising, partial curve].
In the case of `COc1cc(/C=N/N=C(/C(=O)c2ccccc2)c2ccccc2)cc(OC)c1O`, the cell number change is -38.2%. Further, the half-maximal activity concentration (AC50) under setting [1] was 32.6 µM [falling, single point]. The half-maximal activity concentration (AC50) under setting [2] was 5.8 µM [rising, single point].
On to `O=c1cc(CO)oc(C(Nc2ccccn2)c2cccc(F)c2)c1O` (centres undefined), for which the cell number change was -31.9%. For the same molecule, under setting [1], the half-maximal activity concentration (AC50) is 1.3 µM [falling, full curve]. Moreover, the AC50 under setting [2] was 10.3 µM [falling, partial curve].
Take `COc1cc(NC(=O)CN(C)Cc2cccc(F)c2)c(C)cc1[N+](=O)[O-]`: the cell number change came to 29.8%.
`Nc1cc(Cl)ccc1C(=O)OCC(=O)NC(=O)NCc1ccccc1`: the cell number change was 8.14%. For the same molecule, the AC50 under setting [2] is 20.6 µM [falling, single point].
In the case of `CCn1c(SCC(=O)NCc2ccccc2)nnc1-c1ccccc1O`, the cell number change was -2.31%.
With `CC1=NN(c2ccccc2)C(=O)/C1=C/c1ccc[nH]1`, the cell number change is -76.9%. The AC50 under setting [1] was 29.1 µM [falling, single point]. The AC50 under setting [2] was 29.1 µM [falling, single point].
For the molecule `O=C1c2ccccc2C(=O)N1CCCSc1nc2ccccc2o1`, the cell number change is -4.74%. Moreover, the AC50 under setting [2] is 13 µM [falling, single point].
Take `CC(=O)Nc1ccc(Nc2c3c4c(cccc4n(C)c2=O)C(=O)c2ccccc2-3)cc1`: the cell number change stood at 20.1%. Also, under setting [2], the half-maximal activity concentration (AC50) was 5.17 µM [falling, single point].
On to `NC(=O)c1sc2cc(C(F)(F)F)cnc2c1-c1cccs1`, for which the cell number change amounted to 27.3%. Besides, under setting [2], the AC50 is 8.2 µM [rising, partial curve].
As for `CCc1nc2oc3cc(OC)ccc3c(=O)c2c(=O)n1-c1ccccc1`, the cell number change amounted to 18.4%. The AC50 under setting [2] is 6.51 µM [rising, partial curve].
As to `O=C(c1ccco1)N1CCN(C(=O)c2cc3ccccc3oc2=O)CC1`, the cell number change is -0.578%. Further, the half-maximal activity concentration (AC50) under setting [2] was 0.461 µM [rising, single point].
`CC(C)CN(C(=O)COC(=O)c1ccc2ccccc2n1)C1CCS(=O)(=O)C1` (centres undefined): the cell number change amounted to 10.3%. The AC50 under setting [2] is 29.1 µM [rising, single point].
Consider `CCc1ccc(S(=O)(=O)N/N=C\c2ccc3c(c2)OCO3)cc1`, for which the cell number change was -6.16%. In addition, the AC50 under setting [2] is 0.146 µM [rising, full curve, poor fit].
With `CCC(c1nnnn1CCc1ccccc1)N1CCN(c2ccc(OC)cc2)CC1` (centres undefined), the cell number change stood at 5.14%.
For the molecule `CCSc1ccc([C@@H]2[C@@H]3C(=O)N(CC)C(=O)[C@@H]3[C@]3(C(=O)OC)CCCCN23)cc1`, the cell number change is 15.3%. Also, the concentration at half-maximal activity (AC50) under setting [2] is 6.51 µM [rising, partial curve, poor fit].
`CCCCN(C(=O)c1c(C)noc1C)c1c(N)n(CCC)c(=O)[nH]c1=O`: the cell number change was -1.68%. The AC50 under setting [2] is 0.184 µM [falling, full curve, poor fit].
With `CCc1nnc(NC(=O)CCC(=O)NCC2CCCO2)s1` (centres undefined), the cell number change came to 7.76%. In addition, under setting [2], the half-maximal activity concentration (AC50) was 29.1 µM [falling, single point].
`CC1Oc2ccccc2N(Cc2cccnc2)C1=O` (centres undefined): the cell number change came to 3.58%. Under setting [2], the half-maximal activity concentration (AC50) was 0.116 µM [falling, single point].
In the case of `CCc1nnc(NC(=O)CSc2nnc(-c3cccnc3)n2CC)s1`, the cell number change came to 44.2%. Moreover, the AC50 under setting [1] was 0.461 µM [rising, partial curve, poor fit].
As for `CCc1ccccc1N1CC23C=CC(O2)C(C(=O)OCC(C)C)C3C1=O` (centres undefined), the cell number change is 18.1%. Under setting [2], the concentration at half-maximal activity (AC50) is 0.58 µM [rising, full curve].
For the molecule `Cc1ccc(C(=O)NCC(=O)NCC(=O)OCC(=O)c2ccc(Br)cc2)cc1`, the cell number change is -4.4%. The concentration at half-maximal activity (AC50) under setting [2] was 8.2 µM [falling, partial curve, poor fit].
Consider `Cc1[nH]n2c(=O)c(C#N)c(-c3ccccc3)nc2c1-c1ccccc1`, for which the cell number change is -3.75%. The half-maximal activity concentration (AC50) under setting [2] was 0.092 µM [falling, full curve, poor fit].
Consider `CC(C)(C)NC(=O)Cn1c(SCC(=O)N2CCCCCC2)nc2ccccc21`, for which the cell number change was -1.25%. Further, under setting [2], the AC50 is 1.84 µM [rising, full curve, poor fit].
`COc1ccc(Cl)cc1-c1nc(N)nc(NC2CCCCC2)n1`: the cell number change amounted to 36.5%. For the same molecule, the AC50 under setting [1] is 5.17 µM [rising, full curve, poor fit]. Besides, the AC50 under setting [2] was 9.2 µM [rising, partial curve].
Consider `C=C(C)COc1ccc(-c2n[nH]c(C)c2-c2ccc(OC)cc2)c(O)c1`, for which the cell number change is -47.8%. Further, the AC50 under setting [1] was 14.6 µM [falling, partial curve]. Further, under setting [2], the AC50 is 20.6 µM [falling, single point].
For the molecule `COCC(=O)Nc1nc2n(n1)C(c1ccccc1Cl)CC(c1ccc(OC)cc1)N2` (centres undefined), the cell number change is 24.4%. The AC50 under setting [2] is 20.6 µM [rising, single point].
`COCCNc1nnc(SCC(=O)c2ccc3c(c2)OCO3)s1`: the cell number change is -4.33%.
For `O=C(O)c1ccc2c(c1)N(Cc1cccc(F)c1)C(=O)CS2`, the cell number change stood at 23.5%. The AC50 under setting [2] is 0.00411 µM [rising, full curve, poor fit].
For the molecule `Nc1nc(NCc2ccco2)nc(NCCO)c1[N+](=O)[O-]`, the cell number change worked out at 24.7%. Further, the half-maximal activity concentration (AC50) under setting [2] is 7.31 µM [rising, partial curve].
Take `Cc1ccc(CCNC(=O)C2CCN(S(=O)(=O)c3ccc4c(c3)NC(=O)C(C)S4)CC2)cc1` (centres undefined): the cell number change worked out at 7.63%. Also, the concentration at half-maximal activity (AC50) under setting [2] is 29.1 µM [rising, single point].
Turning to `CC(C)c1cc(=O)n2c(nc3ccccc32)[nH]1`, the cell number change is -8.52%. Further, the half-maximal activity concentration (AC50) under setting [2] was 6.51 µM [falling, partial curve, poor fit].
With `O=C(CN1CCCCCCC1)Nc1cc(Cl)cc(Cl)c1`, the cell number change was 16.8%.
Consider `CC(C)CC(NC(=O)/C(=C/c1ccco1)NC(=O)c1ccc(Br)o1)C(=O)O` (centres undefined), for which the cell number change is -29.3%. Besides, the concentration at half-maximal activity (AC50) under setting [2] is 36.6 µM [falling, partial curve, poor fit].
On to `CN(C)S(=O)(=O)c1cccc(NC(=O)COC(=O)c2cccn2C)c1`, for which the AC50 under setting [2] was 6.51 µM [falling, single point].
The same measure, in the same setting: to `Cc1cc(-c2nnnn2-c2ccc(F)cc2)no1` belongs 32.6 µM [rising, single point].
In the case of `CCC(CC)C(=O)NCCc1cc2cc(C)c(C)cc2[nH]c1=O`, the cell number change is 29.9%.
As for `Cc1cc2oc(=O)cc(COC(=O)c3n[nH]c4ccccc34)c2cc1C`, the cell number change is 32.1%. Moreover, the concentration at half-maximal activity (AC50) under setting [1] was 9.2 µM [rising, partial curve].
As to `CCc1ccc(C2=NNC(=Nc3c(C)n(C)n(-c4ccccc4)c3=O)SC2)cc1`, the cell number change was -19.8%. Besides, the AC50 under setting [2] is 0.00411 µM [falling, full curve, poor fit].
Turning to `O=C(NCc1cccnc1)Nc1ccc(Br)cc1Cl`, the cell number change was 29.7%. Moreover, the AC50 under setting [2] is 29.1 µM [rising, single point].
Regarding `O=C(NCCN1CCc2ccccc2C1)C1CCN(S(=O)(=O)N2CCCCC2)CC1`, the cell number change was found to be 14.6%. The concentration at half-maximal activity (AC50) under setting [2] is 29.1 µM [rising, single point].
As for `CCC(Sc1nc2c(c(=O)[nH]1)CCC2)C(=O)Nc1cccc(OC)c1` (centres undefined), the cell number change was 63.3%. The AC50 under setting [2] is 29.1 µM [rising, single point].
For the molecule `COCCOC(=O)C(C#N)c1nc2ccccc2nc1N1CCCC1` (centres undefined), the cell number change amounted to 48.8%. In addition, the concentration at half-maximal activity (AC50) under setting [1] is 10.3 µM [rising, partial curve].
Consider `COc1ccc(N2CCN(S(=O)(=O)c3cc(-c4cc(C)no4)ccc3C(C)C)CC2)cc1`, for which the cell number change was 0.298%. For the same molecule, the AC50 under setting [2] is 16.4 µM [rising, single point].
`CCOc1cc(/C=N/NC(=O)CN2CCOCC2)ccc1OCc1ccc(Cl)cc1`: the AC50 under setting [1] is 0.184 µM [rising, full curve, poor fit].
Consider `O=S(=O)(CS(=O)(=O)c1ccc(Cl)cc1)c1ccc(Cl)cc1`, for which the cell number change came to 50.1%. The half-maximal activity concentration (AC50) under setting [1] was 29.1 µM [rising, single point].
On to `CC(=O)c1cccc(NC(=O)/C(=C\c2ccco2)NC(=O)c2cccs2)c1`, for which the cell number change was found to be 20.7%. Moreover, the AC50 under setting [1] was 0.103 µM [rising, full curve, poor fit]. In addition, under setting [2], the concentration at half-maximal activity (AC50) was 23.1 µM [rising, single point].
As to `COc1ccc(NC(=O)Cn2c(=O)n(CC(=O)NCc3ccco3)c(=O)c3ccccc32)cc1`, the cell number change was 1.44%.
`COCCn1c(SCC(=O)c2ccccc2)nc2c(c1=O)SC(C)C2` (centres undefined): the cell number change was 71%. Under setting [1], the concentration at half-maximal activity (AC50) is 1.84 µM [rising, full curve]. The AC50 under setting [2] was 5.17 µM [rising, single point].
As to `COc1ccc(NC(=O)CCNC(=O)Cn2ccc3ccccc3c2=O)cc1Cl`, the cell number change is 8.11%. Further, the concentration at half-maximal activity (AC50) under setting [2] was 29.1 µM [falling, single point].
On to `Nn1c(SC/C=C/c2ccccc2)nnc1-c1ccco1`, for which the cell number change was -14.2%. In addition, the half-maximal activity concentration (AC50) under setting [2] was 16.4 µM [rising, partial curve].

(Values after PubChem BioAssay AID2685 (National Center for Advancing Translational Sciences (NCATS), 2010).)
